In PubChem BioAssay AID493014 (National Center for Advancing Translational Sciences (NCATS), 2011) one finds AC50 data, which are given here for 39 compounds.

For orientation: AC50 means the concentration giving half of the maximal activity seen.

The list shows a part of the results. The main result of the screen is listed elsewhere. These columns were measured beside it and carry no call. Most of these compounds were active or inconclusive in the main read-out, so they are no random draw. Potencies come from curve fits of mixed quality, noted in brackets.

This assay is described as follows: qHTS Assay to Find Inhibitors of Chronic Active B-Cell Receptor Signaling. The conditions noted are these: ABC-DLBCL IkBa-CBG/CBR reporter, luminescence ratio (green luciferase fused to IkBa over red control in TMD8 lymphoma cells), 4 h. The method in brief: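 Doxycycline induced both beetle luciferases in TMD8 lymphoma cells; IKK-driven degradation limits the IkappaBalpha-fused green signal, while red luminescence normalises for cell number and nonspecific effects. Compounds tested up to 46 uM, 4 hrs.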

Setting [1] is: measured here: CBR red luminescence, cell number.
The mark [2] stands for this setting: measured here: IkBa-CBG green luminescence.

As to `O=C(CCN1C(=O)/C(=C/c2ccc(Cl)cc2)SC1=S)Nc1cccnc1`, the AC50 under setting [1] was 10 µM [falling, partial curve].

On to `Cc1ccc(N=Cc2cc(Cc3ccccc3Cl)cc([N+](=O)[O-])c2O)c(O)c1`, for which, under setting [1], the AC50 was 12.6 µM [falling, partial curve, poor fit].

Turning to `COc1cccc(/C=C/C(=O)c2ccc(NC3=NCCCS3)cc2)c1`, the AC50 under setting [1] was 35.5 µM [falling, single point].

On to `CCCN(Cc1nc(-c2ccc(Cl)cc2)no1)CC1CCCO1` (stereo not given), for which the AC50 under setting [1] is 35.5 µM [rising, single point].

For `O=C1c2cccc3c(O)ccc(c23)C(=O)N1Cc1ccccc1`, the AC50 under setting [2] is 11.6 µM [rising, partial curve, poor fit].

On to `O=C(c1ccc(NS(=O)(=O)c2ccccc2)cc1)N1CCCC1`, for which the AC50 under setting [1] was 29.1 µM [falling, single point].

For the compound `CCOC(=O)c1[nH]c(C)c(C(=O)OCc2c(C)noc2C)c1C`, under setting [1], the AC50 was 2.91 µM [rising, single point].

Turning to `CCC(=O)Oc1cccc(C(=O)Nc2cccc(NC(=O)c3ccco3)c2)c1`, the AC50 under setting [1] was 7.08 µM [falling, full curve, poor fit].

Turning to `Cc1cc2ncc(-c3cccc(Cl)c3)cn2n1`, the AC50 under setting [1] is 12.6 µM [rising, partial curve, poor fit].

For `CN1CCc2c(sc(NC(=O)c3cc(Cl)sc3Cl)c2C(N)=O)C1`, the AC50 under setting [1] was 17.8 µM [falling, single point].

For `O=C(CCCCCCCC(=O)NNC(=O)Nc1ccccc1)NNC(=O)Nc1ccccc1`, the AC50 under setting [1] is 29.1 µM [rising, single point].

In the case of `COc1ccc(NC(=O)CSc2nnc(NC(=O)Nc3ccccc3)s2)c(OC)c1`, the AC50 under setting [1] was 0.316 µM [falling, full curve, poor fit].

Regarding `CCOC(=O)C(=CNNc1ccccc1)C(=O)OCC`, the AC50 under setting [1] was 35.5 µM [falling, partial curve, poor fit].

In the case of `CC(C)c1ccc(NC(=O)COc2ccc(F)cc2C(=O)c2cnn(-c3ccccc3)c2)cc1`, the AC50 under setting [1] is 5.8 µM [rising, full curve, poor fit].

With `O=C(Cc1ccc(Cl)cc1)Nc1ccc(S(=O)(=O)Nc2ncccn2)cc1`, the AC50 under setting [1] was 35.5 µM [rising, single point].

Regarding `COc1cc(/C=C/c2ccc3cccc([N+](=O)[O-])c3n2)ccc1OCC#N`, the AC50 under setting [1] was 20.6 µM [rising, partial curve, poor fit].

In the case of `Cc1ccc(-n2nc(C)c(C(=O)O)n2)c(C)c1`, the AC50 under setting [1] was 1.3 µM [falling, partial curve].

For the compound `C[C@H](CO)N1C[C@H](C)[C@@H](CN(C)S(=O)(=O)c2ccccc2)Oc2ccc(NC(=O)Cc3ccccc3)cc2C1=O`, under setting [1], the AC50 was 29.1 µM [rising, single point].

As to `COCCOc1cnn(-c2cc(Oc3ccc(C)cc3)ncn2)c(=O)c1Cl`, the AC50 under setting [1] was 2.91 µM [rising, partial curve, poor fit].

Consider `O=C(O)c1ccc(NC(=S)NC(=O)c2cncc(Br)c2)cc1`, for which the AC50 under setting [1] is 0.891 µM [falling, full curve, poor fit].

For `O=C(Nc1ccc2nc(C3CC3)n(Cc3ccc(F)cc3)c(=O)c2c1)c1ccco1`, the AC50 under setting [1] was 35.5 µM [falling, single point].

Take `Cc1ccc(SCC(=O)NCCc2ccccc2)cc1`: the AC50 under setting [1] was 3.16 µM [rising, partial curve, poor fit].

As to `O=C(Nc1nc2c(F)cc(F)cc2s1)c1ccco1`, the AC50 under setting [1] is 8.91 µM [falling, partial curve].

Take `O=C(CN1C(=O)C2CCCCC2C1=O)Nc1nc(-c2ccccn2)cs1` (stereo not given): the AC50 under setting [1] was 6.51 µM [falling, partial curve, poor fit].

`COc1ccc(/C=N/Nc2nc3ccccc3c(=O)n2-c2ccccc2)cc1OC`: the AC50 runs as follows: under setting [1], 5.8 µM [falling, full curve]; under setting [2], 0.058 µM [rising, full curve].

On to `O=C(COc1ncnc2cc([N+](=O)[O-])ccc12)NCc1ccc2c(c1)OCO2`, for which the AC50 under setting [1] is 16.4 µM [falling, partial curve, poor fit].

As for `O=C(NCc1ccc(F)cc1)c1cc2ccccn2n1`, under setting [1], the AC50 was 20.6 µM [rising, partial curve, poor fit].

Regarding `C#CCOCCOCCOCCNc1nc(N2CCOCC2)nc(N2CCN(C(=O)[C@H](Cc3ccc(O)cc3)n3cc([C@@H](N)C(C)CC)nn3)CC2)n1` (stereo not given in full), under setting [1], the AC50 was 6.31 µM [rising, single point].

As for `CCCCC(=NCCc1c(C)[nH]c2ccc(OC)cc12)C1=C(O)CC(c2ccccc2)CC1=O` (stereo not given), the AC50 under setting [1] is 5.01 µM [rising, partial curve, poor fit].

For `CCOC(=O)C1(Cc2cccc(OC)c2)CCCN(Cc2cc(C(C)C)n[nH]2)C1` (stereo not given), the AC50 under setting [1] was 35.5 µM [falling, single point].

On to `CN(C)CCCn1c(=O)n(Cc2ccco2)c(=O)c2c3c(sc21)CCCCC3`, for which, under setting [1], the AC50 is 6.31 µM [falling, partial curve, poor fit].

Consider `COc1ccc(-c2cn(-c3ccc(OC)cc3)c3[n+]2-c2ccccc2CC3)cc1`, for which, under setting [1], the AC50 was 29.1 µM [falling, single point].

As to `CCOc1cccc2sc(=NC(=O)c3ccco3)n(CC(=O)OC)c12`, the AC50 under setting [1] was 4.47 µM [rising, full curve, poor fit].

As to `CC(=O)c1sc(NC(=O)c2ccc3c(c2)OCO3)nc1C`, the AC50 under setting [1] was 10 µM [falling, partial curve, poor fit].

For `Cc1ccc(N(Cc2cc3ccccc3[nH]c2=O)S(C)(=O)=O)cc1`, under setting [1], the AC50 is 14.1 µM [falling, single point].

Regarding `COc1cccc(/C=N/NC(=O)c2ccc(COc3ccc(Cl)cc3Cl)o2)c1`, the AC50 under setting [1] was 4.47 µM [falling, full curve, poor fit].

For the compound `CC(CCc1ccccc1)NC(=O)/C=C/c1ccccc1` (stereo not given), the AC50 under setting [1] was 0.0891 µM [rising, full curve, poor fit].

For `FC(F)(F)c1cnc2c(c1)Nc1ccccc1S2`, the AC50 under setting [1] was 0.398 µM [rising, full curve].

For the compound `C/C(CC(=O)Nc1ccc([N+](=O)[O-])cc1)=N\NC(=O)c1ccccc1[N+](=O)[O-]`, the AC50 under setting [1] was 7.94 µM [falling, partial curve, poor fit].
